# Results deposited as PubChem BioAssay AID743121 (NCATS, 2013)
# Assay: 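Genes whose silencing strengthens cell killing by camptothecin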 (primary screen)
# System: MDA-MB-231 cells, a human breast cancer line
# Reagent: single siRNA against human genes, 20 nM siRNA (0.8 pmol per well)
# Duration: 120 h (drug added 48 h after transfection, read 72 h later)
# Conditions: camptothecin 20 nM (about EC30) for 72 h; vehicle 0.1% DMSO in parallel plates
# Measured: 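CellTiter-Glo ATP signal, scaled to control siRNA as percent viability; sensitisation given as log2 of untreated divided by camptothecin-treated viability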
# Reading the numbers: log2 vehicle/camptothecin viability: higher = stronger sensitisation to camptothecin; viability with camptothecin and viability without drug: higher = more viable cells
# Active means: 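Active genes have an RSA gene-level p-value below 0.001, computed from the ratios of their separate siRNAs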
# Here is one part, drawn at random, of about 26,000 deposited reagents. In the full data, 167 (0.63%) are marked active. 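Calls are per gene from RSA p-values that are not deposited; an individual active-marked siRNA can sensitise only weakly.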 The numbers tell different reagents against one gene apart.
target,reagent no.,log2 vehicle/camptothecin viability,viability with camptothecin (% of control),viability without drug (% of control),outcome
ANGPT4 (angiopoietin 4),1,-0.258,97.2,81.3,inactive
ANGPT4 (angiopoietin 4),2,-0.31,39.8,32.1,inactive
ANGPT4 (angiopoietin 4),3,-0.327,108,85.9,inactive
ANGPT4 (angiopoietin 4),4,0.0115,87.2,87.9,inactive
SENP7 (SUMO specific peptidase 7),1,0.0517,101,104,inactive
SENP7 (SUMO specific peptidase 7),2,-0.0647,104,99.5,inactive
SENP7 (SUMO specific peptidase 7),3,0.0876,85.5,90.8,inactive
SENP7 (SUMO specific peptidase 7),4,-0.446,44.5,32.7,inactive
RPL38 (ribosomal protein L38),1,-0.629,52.9,34.2,inactive
RPL38 (ribosomal protein L38),2,-0.485,46.1,32.9,inactive
RPL38 (ribosomal protein L38),3,-0.24,41,34.7,inactive
RPL38 (ribosomal protein L38),4,-0.704,40.6,24.9,inactive
SNAI2 (snail family transcriptional repressor 2),1,0.393,10.3,13.5,inactive
SNAI2 (snail family transcriptional repressor 2),2,-0.321,81.7,65.4,inactive
SNAI2 (snail family transcriptional repressor 2),3,-0.0904,74.8,70.3,inactive
SNAI2 (snail family transcriptional repressor 2),4,0.0344,73.1,74.8,inactive
CLTCL1 (clathrin heavy chain like 1),1,-0.0847,91.9,86.7,inactive
CLTCL1 (clathrin heavy chain like 1),2,0.174,54.5,61.5,inactive
CLTCL1 (clathrin heavy chain like 1),3,-0.129,104,95.5,inactive
CLTCL1 (clathrin heavy chain like 1),4,-0.0216,74.7,73.6,inactive
ONECUT3 (one cut homeobox 3),1,-0.0909,91.8,86.2,inactive
ONECUT3 (one cut homeobox 3),2,-0.0546,35.3,34,inactive
ONECUT3 (one cut homeobox 3),3,-0.0163,79.5,78.7,inactive
ONECUT3 (one cut homeobox 3),4,-0.309,66.9,54,inactive
GPR161 (G protein-coupled receptor 161),1,0.125,62.9,68.6,inactive
GPR161 (G protein-coupled receptor 161),2,-0.359,92.5,72.1,inactive
GPR161 (G protein-coupled receptor 161),3,-0.126,72.2,66.2,inactive
GPR161 (G protein-coupled receptor 161),4,0.0633,86.6,90.5,inactive
NPEPL1 (aminopeptidase like 1),1,-0.0914,70,65.7,inactive
NPEPL1 (aminopeptidase like 1),2,0.0157,49.6,50.1,inactive
NPEPL1 (aminopeptidase like 1),3,-0.272,43.8,36.3,inactive
PTK2B (protein tyrosine kinase 2 beta),1,0.269,72.7,87.5,inactive
PTK2B (protein tyrosine kinase 2 beta),2,-0.376,123,95.1,inactive
PTK2B (protein tyrosine kinase 2 beta),3,-0.312,104,83.5,inactive
PTK2B (protein tyrosine kinase 2 beta),4,-0.514,70.7,49.5,inactive

Continued; the last 9 above are carried over.
target,reagent no.,log2 vehicle/camptothecin viability,viability with camptothecin (% of control),viability without drug (% of control),outcome
GPR161 (G protein-coupled receptor 161),3,-0.126,72.2,66.2,inactive
GPR161 (G protein-coupled receptor 161),4,0.0633,86.6,90.5,inactive
NPEPL1 (aminopeptidase like 1),1,-0.0914,70,65.7,inactive
NPEPL1 (aminopeptidase like 1),2,0.0157,49.6,50.1,inactive
NPEPL1 (aminopeptidase like 1),3,-0.272,43.8,36.3,inactive
PTK2B (protein tyrosine kinase 2 beta),1,0.269,72.7,87.5,inactive
PTK2B (protein tyrosine kinase 2 beta),2,-0.376,123,95.1,inactive
PTK2B (protein tyrosine kinase 2 beta),3,-0.312,104,83.5,inactive
PTK2B (protein tyrosine kinase 2 beta),4,-0.514,70.7,49.5,inactive
MCCC1 (methylcrotonyl-CoA carboxylase subunit 1),1,-0.288,41,33.6,inactive
MCCC1 (methylcrotonyl-CoA carboxylase subunit 1),2,-0.474,95,68.4,inactive
MCCC1 (methylcrotonyl-CoA carboxylase subunit 1),3,-0.463,60.2,43.7,inactive
MCCC1 (methylcrotonyl-CoA carboxylase subunit 1),4,0.246,95.7,113,inactive
RGS12 (regulator of G protein signaling 12),1,0.0787,90.8,95.9,inactive
RGS12 (regulator of G protein signaling 12),2,-0.0714,86.8,82.7,inactive
RGS12 (regulator of G protein signaling 12),3,-0.292,96.6,78.9,inactive
RGS12 (regulator of G protein signaling 12),4,-0.256,89.5,75,inactive
RGS12 (regulator of G protein signaling 12),5,-0.255,102,85.2,inactive
RGS12 (regulator of G protein signaling 12),6,-0.221,43.4,37.3,inactive
FFAR3 (free fatty acid receptor 3),1,-0.357,116,90.6,inactive
FFAR3 (free fatty acid receptor 3),2,0.0361,62.5,64.1,inactive
FFAR3 (free fatty acid receptor 3),3,-0.519,61.7,43,inactive
FFAR3 (free fatty acid receptor 3),4,-0.327,89.9,71.7,inactive
FFAR3 (free fatty acid receptor 3),5,-0.00264,107,106,inactive
FFAR3 (free fatty acid receptor 3),6,-0.266,96.2,80,inactive
FFAR3 (free fatty acid receptor 3),7,-0.0912,54.6,51.3,inactive
FFAR3 (free fatty acid receptor 3),8,-0.397,25,19,inactive
KCNJ14 (potassium inwardly rectifying channel subfamily J member 14),1,-0.298,59.5,48.4,inactive
KCNJ14 (potassium inwardly rectifying channel subfamily J member 14),2,-0.0518,69.9,67.4,inactive
KCNJ14 (potassium inwardly rectifying channel subfamily J member 14),3,-0.0891,105,98.3,inactive
KCNJ14 (potassium inwardly rectifying channel subfamily J member 14),4,-0.0535,106,102,inactive
MMEL1 (membrane metalloendopeptidase like 1),1,0.112,82.2,88.8,inactive
MMEL1 (membrane metalloendopeptidase like 1),2,-0.395,34,25.9,inactive
MMEL1 (membrane metalloendopeptidase like 1),3,-0.154,63.2,56.8,inactive
MMEL1 (membrane metalloendopeptidase like 1),4,-0.0434,29.8,28.9,inactive
PRKAR1A,1,-0.244,107,90.6,inactive
PRKAR1A,2,-0.0443,80.3,77.9,inactive
PRKAR1A,3,-0.00437,48.1,48,inactive
PRKAR1A,4,-0.644,65.7,42,inactive
BTN1A1 (butyrophilin subfamily 1 member A1),1,0.0145,69.5,70.2,inactive
BTN1A1 (butyrophilin subfamily 1 member A1),2,-0.249,85.6,72,inactive
BTN1A1 (butyrophilin subfamily 1 member A1),3,-0.0648,80.8,77.3,inactive
